Measurements reported in patent US8703822B2, “Method for removing undifferentiated and dedifferentiated stem cell” (Nanyang Polytechnic, priority 2009, dated 2014).
Some results were stated once for a whole list of compounds, not compound by compound.

System: hESCs
Experiment: light microscopy of hESC colonies cultured on murine feeder cells, hESC-selective killing
Assay type: cell-based, human
Conditions: for time within which selective killing effects were seen: in some instances
Experimental: Using the above cell viability assays, various cell types including hESCs, differentiated hESCs, human primary astrocytes and murine feeder cells (mouse embryonic fibroblasts (MEFs)) were treated with one of the analogues synthesized in Examples 1 to 3. The cells were then visualized with 5×, 10×, 20× and 40× objectives using dark field, phase optics and fluorescence microscopy with an Olympus IX51 inverted microscope or Leica MZ8 stereomicroscope.
In the phase contrast optics images (FIGS. 1A and 1B), the hESCs are seen as dark colonies surrounded by the murine feeder cells (mouse embryonic fibroblasts (MEFs)). In the dark field images (FIGS. 1C and 1D), the hESCs are seen as bright colonies surrounded by the murine feeder cells (mouse embryonic fibroblasts (MEFs)).

CCCCCCCCNC(=O)NCc1ccc(O)c(O)c1 [JC010]
period of time within which selective killing occurred: less than 12 h
time within which selective killing effects were seen: ≤ 3 h

CCCCCCCCC(=O)NCc1ccc(O)c(O)c1 [JC011]
period of time within which selective killing occurred: less than 12 h
time within which selective killing effects were seen: ≤ 3 h
